Data from patent US20230149383A1, “QUINOLINE COMPOUNDS FOR TREATING LUNG, LIVER, AND KIDNEY DISEASES, DISORDERS, OR CONDITIONS” (Aldeyra Therapeutics, Inc., priority 2020, published 2023).

System: rat NAFLD model
Test: 12-week choline deficient high fat diet rat study (NAFLD model)
Type: in vivo
Conditions: 7 or 12 week period
From the text: NAFLD is diagnosed in the US as 3 million new cases each year. NASH is included in the NAFLD diagnosis, as it is the easiest to ascertain in a subject. NAFLD activity score (NAS) is scored as 0-2 not diagnostic, 3-4 ranges from not diagnostic/borderline/positive NASH, and 5-8 diagnostic of NASH; the NAS scoring system includes a composite of […] semi-quantitative features: steatosis (0-3), lobular inflammation (0-2), hepatocellular ballooning (0-2), and fibrosis (0-4). To analyze the effect of compound I-1 on NAFLD, NAS was analyzed in rats treated with vehicle or various doses of compound I-1 (100 mg/kg, 125 mg/kg was compared to escalation 30/60/100 mg/kg and 50/75/100 mg/kg BID, respectively in animals fed a choline deficient, high fat diet for 7 weeks (vehicle vs. 100 mg/kg vs 30/60/100 mg/kg) and 12 weeks (vehicle vs. 125 mg/kg vs 50/75/100 mg/kg). Plasma was collected at 1, 2, 3, 6, 8, 10, and 12 weeks and tested for cytokines and ALT, AST, Triglycerides, Cholesterol, and tBilirubin (measures of liver function). At 12 weeks the livers were collected and gene expression studies, immunohistochemistry, and hydroxyproline.

## CC(C)(O)c1nc2ccccc2cc1N [I-1]
  food intake: did not change
  weight gain: did not change
